From patent US11390602B2, “N-alkyl-N-cyanoalkylbenzamide compound and use thereof” (JIANGSU FLAG CHEMICAL INDUSTRY CO., LTD., priority 2017, dated 2022)
Some results were stated once for a whole list of compounds, not compound by compound.

Test system: Spodoptera exigua
Experiment: Insecticidal effect on Spodoptera exigua (sprayed cabbage leaf discs)
Format: in vivo
Conditions: 10 ppm reagent solution; 3rd instar larvae; after 120 h

SMILES	control effect on Spodoptera exigua
Cc1cc(Cl)cc(C(=O)N(C)C(C)(C)C#N)c1NC(=O)c1cc(Br)nn1-c1ncccc1Cl [Compound 1.1, N-(2-N-((2-cyanopropan-2-yl)-N-methylcarbamoyl)-4-chloro-6-methylphenyl)-1-(3-chloropyridin-2-yl)-3-bromo-1H-pyrazol-5-carboxamide]	more than 80%
CN(C(=O)c1cc(Cl)cc(Cl)c1NC(=O)c1cc(Br)nn1-c1ncccc1Cl)C(C)(C)C#N [Compound 1.15, N-(6-N-((2-cyanopropan-2-yl)-N-methylcarbamoyl)-2,4-dichlorophenyl)-1-(3-chloropyridin-2-yl)-3-bromo-1H-pyrazol-5-carboxamide]	more than 80%
